# Reference: PubChem BioAssay AID493014 (National Center for Advancing Translational Sciences (NCATS), 2011)
# The list shows a part of the results. Shown are side measurements of this screen, not its main read-out; they come without a call. Compounds called inactive in the main read-out are mostly missing here. The note in brackets gives the kind of curve behind each potency; many fits are weak.
# Assay: qHTS Assay to Find Inhibitors of Chronic Active B-Cell Receptor Signaling
# Conditions: ABC-DLBCL IkBa-CBG/CBR reporter, luminescence ratio (green luciferase fused to IkBa over red control in TMD8 lymphoma cells), 4 h; measured here: CBR red luminescence, cell number
# Method in brief: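 TMD8 human ABC-DLBCL cells with doxycycline-inducible IκBα–green luciferase fusion and unfused red luciferase, in 0.5% FBS medium; compounds up to 46 uM, 4 h at 37C. Green/red luminescence ratio, filter-overlap corrected, fitted to concentration-response curves.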
row,Structure (SMILES),AC50
1,CCCCNS(=O)(=O)CCNCc1ccccc1OC,"10.3 µM [rising, partial curve, poor fit]"
